PubChem BioAssay AID1671195 – Yale University – 2021
Aim: 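Knockdowns that increase or decrease uptake of fluorescent LDL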 (primary screen). Cell system: human Huh7 hepatoma cells. Reagents: siRNA pool against human genes, 18 nM. Time to read-out: about 2 to 2.5 days of knockdown, then 8 h LDL uptake. Conditions: DiI-labelled LDL at 30 µg/ml for 8 h, in lipoprotein-deficient serum medium. Measured: 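Per-cell DiI-LDL intensity by automated imaging; well means scaled to the plate median and given as a robust z-score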. Scale: robust z-score: higher = more LDL uptake after knockdown. Active means: 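Active when two or more replicates show a robust z-score above 2 or below -2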.
Shown is a random part of about 22,000 reagents. About 1,510 of them (6.9%) count as active. 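Active includes knockdowns raising or lowering LDL uptake; positive z-scores mean more uptake, negative mean less.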 The numbers tell different reagents against one gene apart.

robust z-score, replicate 1 | robust z-score, replicate 2 | robust z-score, replicate 3 | call | Target gene | reagent
1.08 | 1.27 | 1.1 | inactive | ALDH7A1 (aldehyde dehydrogenase 7 family member A1) | 1
-1.23 | 0.0176 | -0.959 | inactive | SETD9 (SET domain containing 9) | 1
-0.584 | -0.34 | -0.694 | inactive | ATG16L2 (autophagy related 16 like 2) | 1
-2.15 | 0.606 | 0.26 | inactive | TIGD4 (tigger transposable element derived 4) | 1
0.644 | 0.137 | 2.36 | inactive | OSGIN2 (oxidative stress induced growth inhibitor family member 2) | 1
-0.947 | -0.722 | -1.04 | inactive | DDX4 (DEAD-box helicase 4) | 1
-0.575 | 0.698 | -0.898 | inactive | CDY2A (chromodomain Y-linked 2A) | 1
-1.34 | -0.764 | -1.06 | inactive | OSBPL11 (oxysterol binding protein like 11) | 1
-0.19 | -0.0268 | -1.03 | inactive | COMMD1 (copper metabolism domain containing 1) | 1
0.317 | -0.474 | -0.37 | inactive | FAM90A10 (family with sequence similarity 90 member A10) | 1
-1.12 | -1.25 | -1.19 | inactive | CDH23 (cadherin related 23) | 1
-0.0836 | -0.317 | -0.355 | inactive | RPS19BP1 (ribosomal protein S19 binding protein 1) | 1
-0.536 | -0.728 | -0.481 | inactive | LUZP2 (leucine zipper protein 2) | 1
-0.538 | -1.11 | -0.938 | inactive | COL1A1 (collagen type I alpha 1 chain) | 1
-0.523 | -0.392 | -1.29 | inactive | MAB21L3 (mab-21 like 3) | 1
1.66 | 1.35 | 0.437 | inactive | LTBP4 (latent transforming growth factor beta binding protein 4) | 1
-0.222 | -1.08 | -0.715 | inactive | TXLNGY (taxilin gamma Y-linked (pseudogene)) | 1
-1.53 | -1.8 | -1.32 | inactive | TXLNGY (taxilin gamma Y-linked (pseudogene)) | 2
1.54 | 2.67 | 2.65 | active | RWDD2A (RWD domain containing 2A) | 1
-0.544 | 0.514 | 0.684 | inactive | AKTIP (AKT interacting protein) | 1
-1.58 | -0.526 | 0.0431 | inactive | ZMAT1 (zinc finger matrin-type 1) | 1
-2.25 | -0.635 | -0.18 | inactive | DYNLT1 (dynein light chain Tctex-type 1) | 1
-0.101 | -0.605 | -0.492 | inactive | ACE2 (angiotensin converting enzyme 2) | 1
-0.607 | -1.17 | -0.766 | inactive | ANP32E (acidic nuclear phosphoprotein 32 family member E) | 1
1.55 | 0.384 | 0.391 | inactive | CNTN1 (contactin 1) | 1
-0.175 | -0.789 | -0.757 | inactive | HAO2 (hydroxyacid oxidase 2) | 1
0.991 | -0.492 | -0.187 | inactive | SH3BGRL (SH3 domain binding glutamate rich protein like) | 1
0.502 | -0.551 | 0.0699 | inactive | DDOST | 1
-0.561 | -0.13 | -0.25 | inactive | RAB8A (RAB8A, member RAS oncogene family) | 1
-0.227 | -0.877 | -0.619 | inactive | LOC441035 (retired record) | 1
1.24 | -0.868 | -0.327 | inactive | RAB22A (RAB22A, member RAS oncogene family) | 1
-1.26 | -0.848 | -0.853 | inactive | FLT3LG (fms related receptor tyrosine kinase 3 ligand) | 1
-0.0175 | 0.00836 | -0.205 | inactive | ABITRAM (actin binding transcription modulator) | 1
1.29 | 0.6 | 0.408 | inactive | ATAD5 (ATPase family AAA domain containing 5) | 1
-1.72 | -1.76 | -1.52 | inactive | PLPPR3 (phospholipid phosphatase related 3) | 1

Continued (3 carried over from the part before).
robust z-score, replicate 1 | robust z-score, replicate 2 | robust z-score, replicate 3 | call | Target gene | reagent
-0.0175 | 0.00836 | -0.205 | inactive | ABITRAM (actin binding transcription modulator) | 1
1.29 | 0.6 | 0.408 | inactive | ATAD5 (ATPase family AAA domain containing 5) | 1
-1.72 | -1.76 | -1.52 | inactive | PLPPR3 (phospholipid phosphatase related 3) | 1
-1.48 | -1.35 | -0.986 | inactive | CHCHD10 (coiled-coil-helix-coiled-coil-helix domain containing 10) | 1
-0.374 | -0.286 | -0.512 | inactive | RBMXL1 (RBMX like 1) | 1
4.69 | 3.52 | 4.18 | active | ELOA (elongin A) | 1
1.36 | 1.86 | 2.18 | inactive | GATAD2B (GATA zinc finger domain containing 2B) | 1
1.91 | 1.39 | 1.89 | inactive | DACT3 (dishevelled binding antagonist of beta catenin 3) | 1
2.58 | 1.29 | 3.57 | active | NCLN (nicalin) | 1
0.866 | 3.04 | 1.69 | inactive | BAZ1B (bromodomain adjacent to zinc finger domain 1B) | 1
0.594 | 0.341 | 0.904 | inactive | EFL1P1 (elongation factor like GTPase 1 pseudogene 1) | 1
0.455 | 0.417 | 0.989 | inactive | PREPL (prolyl endopeptidase like) | 1
-0.33 | 0.0353 | 0.0977 | inactive | AARSD1 (alanyl-tRNA synthetase domain containing 1) | 1
0.532 | 2.39 | -0.669 | inactive | C14orf119 (chromosome 14 open reading frame 119) | 1
-0.159 | -0.00805 | -0.0391 | inactive | ANKRD18A (ankyrin repeat domain 18A) | 1
2.04 | 4.01 | 2.22 | active | RNF8 (ring finger protein 8) | 1
1.39 | -0.153 | 0.667 | inactive | EDRF1-DT (EDRF1 divergent transcript) | 1
-0.554 | -0.823 | -0.886 | inactive | ALK (ALK receptor tyrosine kinase) | 1
5.38 | 4.13 | 3.72 | active | BTNL9 (butyrophilin like 9) | 1
-0.0192 | 0.345 | 0.367 | inactive | CLIC6 (CLIC family member 6) | 1
-0.865 | -0.415 | -0.569 | inactive | KBTBD6 (kelch repeat and BTB domain containing 6) | 1
-1.89 | -1.89 | -2.06 | inactive | LOC391481 (retired record) | 1
-0.623 | 0.21 | -0.235 | inactive | OR6C68 (olfactory receptor family 6 subfamily C member 68) | 1
0.392 | 0.381 | 0.472 | inactive | ZNF322 (zinc finger protein 322) | 1
-0.353 | -0.896 | 0.448 | inactive | SCRIB (scribble planar cell polarity protein) | 1
0.167 | -0.0728 | 2.22 | inactive | CISD1 (CDGSH iron sulfur domain 1) | 1
-0.12 | 0.855 | -0.103 | inactive | B9D2 (B9 domain containing 2) | 1
1.2 | 1.52 | 1.75 | inactive | PTPN4 (protein tyrosine phosphatase non-receptor type 4) | 1
2.84 | 2.73 | 2.98 | active | FOXN2 (forkhead box N2) | 1
1.06 | 1.1 | 1.5 | inactive | POU1F1 (POU class 1 homeobox 1) | 1
0.867 | 1.67 | 0.969 | inactive | FAH (fumarylacetoacetate hydrolase) | 1
0.0856 | 0.278 | 0.206 | inactive | DNMT3B (DNA methyltransferase 3 beta) | 1
0.388 | -1.09 | -1.2 | inactive | CCDC146 (coiled-coil domain containing 146) | 1
-1.45 | -0.984 | -1.42 | inactive | EIF3E (eukaryotic translation initiation factor 3 subunit E) | 1
0.117 | 0.209 | 0.357 | inactive | OR14K1 (olfactory receptor family 14 subfamily K member 1) | 1
0.278 | 0.137 | 0.666 | inactive | CEP290 (centrosomal protein 290) | 1
